Measured values reported in article PMC10248867, “Receptor-like cytoplasmic kinase ScRIPK in sugarcane regulates disease resistance and drought tolerance in Arabidopsis” (Frontiers in Plant Science, 2023).
Results are given in words; binding and its absence hold for the method and conditions named. Binding seen in cells or lysates may run through a third protein. Some results given as binding are weak or reduced against the parent protein; the word gives no strength. Tags and fused reporters may be left off the sequences shown. Each block holds one binder with its values, some of them ahead of it.

How the values were obtained:
[1] = target: T1, AtRIN4, BiFC fusion (YC-AtRIN4 / YN-AtRIN4) (Arabidopsis) (UniProt Q8GYN5); assay: split reporter; BiFC: YN and YC fusions transformed into N. benthamiana leaves, confocal imaging after 2 days; three biological replicates
T1 sequence: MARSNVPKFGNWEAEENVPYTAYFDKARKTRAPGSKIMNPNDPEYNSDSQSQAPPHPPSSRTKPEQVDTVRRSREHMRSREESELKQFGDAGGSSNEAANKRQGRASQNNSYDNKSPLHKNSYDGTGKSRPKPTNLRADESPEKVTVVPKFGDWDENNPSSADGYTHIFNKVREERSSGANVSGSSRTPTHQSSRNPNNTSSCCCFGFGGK

[2] = target: T2, Cluc-AtRIN4 (Arabidopsis) (UniProt Q8GYN5); assay: split reporter; luciferase complementation imaging (LCI): Nluc and Cluc fusions, transient infiltration of N. benthamiana leaves with Agrobacterium GV3101, LUC activity imaged after 2 days
T2 sequence: T1 sequence

- binding [1]: binds
B1: AtRIPK, BiFC fusion (YN-AtRIPK / YC-AtRIPK) (enzyme, UniProt Q9ZUF4 1-462)
chain: MAVKKKVSWRSLIVGCLGDPETLMASSKKPKRKNDVIKKQSSFQRLSILDMSNPSSNTLSEDLSISLAGSDLHVFTLAELKVITQSFSSTNFLGEGGFGPVHKGFIDDKLRPGLKAQPVAVKLLDLEGLQGHREWLTEVMFLGQLKHKNLVKLIGYCCEEEHRTLVYEFMPRGSLENQLFRRYSASLPWSTRMKIAHGAATGLQFLHEAENPVIYRDFKASNILLDSDYTAKLSDFGLAKDGPEGDDTHVSTRVMGTQGYAAPEYIMTGHLTARSDVYSFGVVLLELLTGRRSVDKKRSSREQNLVDWARPMLNDPRKLSRIMDPRLEGQYSETGARKAATLAYQCLSHRPKNRPCMSAVVSILNDLKDYNDIPMGTFTYTVPNTPDNKEDDGRVGNKPRKSSHHHHHQQQQSNHPRSSPSPTTKSPSPTAKSPRNSTENHRRTLRNGVNSPLRSEAGGERY

- binding [2]: binds
B2: Nluc-AtRIPK (enzyme, UniProt Q9ZUF4 1-462)
chain: B1 chain
